PubChem BioAssay AID1259425 | University of Nebraska Medical Center | 2018
Aim: 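Compare each knockdown with KSR1 silencing using changes in marker transcripts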 (primary screen). System: HCT116 human colon cancer cells. Knock-down reagent: siRNA pool against human genes, 50 nM siRNA. Detection: 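mRNA of six signature genes measured together by branched-DNA assay after 50 nM siRNA pool, blank removed, divided by geometric mean of two housekeeping genes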. Direction: BNIP3L mRNA: higher = more BNIP3L transcript after knockdown; NDRG1 mRNA: higher = more NDRG1 transcript after knockdown.
The whole screen tested about 14,000 reagents; shown is a random part of them. Not all columns of the deposit are shown. The record does not give: the time to read-out.

gene symbol	BNIP3L mRNA, set 1	NDRG1 mRNA, set 1
SLC35D1	0.0789	0.141
TMEM47	0.134	0.451
OR3A3	0.145	0.294
ST6GAL1	0.125	0.175
OVCA2	0.0499	0.242
ADD1	0.162	0.578
DDO	0.122	0.106
RAB26	0.223	0.332
PSMD5	0.108	0.23
ADPRM	0.0891	0.182
TAF1	0.109	0.186
GAS2	0.0407	0.08
ZFAT	0.103	0.213
NDUFB11	0.105	0.198
CKAP2	0.137	0.252
SIRAL1	0.156	0.156
SLCO1A2	0.0718	0.123
TMCC1	0.0578	0.148
DPEP3	0.0768	0.581
HIGD1A	0.118	0.201
